Some of the results follow.

Chains of the proteins cited; added tags and fusions are not shown. Lines headed by an entry give the natural chain unless they say otherwise; changes in a name come on top.
UniProt Q9Y2J2, whole entry, looked up: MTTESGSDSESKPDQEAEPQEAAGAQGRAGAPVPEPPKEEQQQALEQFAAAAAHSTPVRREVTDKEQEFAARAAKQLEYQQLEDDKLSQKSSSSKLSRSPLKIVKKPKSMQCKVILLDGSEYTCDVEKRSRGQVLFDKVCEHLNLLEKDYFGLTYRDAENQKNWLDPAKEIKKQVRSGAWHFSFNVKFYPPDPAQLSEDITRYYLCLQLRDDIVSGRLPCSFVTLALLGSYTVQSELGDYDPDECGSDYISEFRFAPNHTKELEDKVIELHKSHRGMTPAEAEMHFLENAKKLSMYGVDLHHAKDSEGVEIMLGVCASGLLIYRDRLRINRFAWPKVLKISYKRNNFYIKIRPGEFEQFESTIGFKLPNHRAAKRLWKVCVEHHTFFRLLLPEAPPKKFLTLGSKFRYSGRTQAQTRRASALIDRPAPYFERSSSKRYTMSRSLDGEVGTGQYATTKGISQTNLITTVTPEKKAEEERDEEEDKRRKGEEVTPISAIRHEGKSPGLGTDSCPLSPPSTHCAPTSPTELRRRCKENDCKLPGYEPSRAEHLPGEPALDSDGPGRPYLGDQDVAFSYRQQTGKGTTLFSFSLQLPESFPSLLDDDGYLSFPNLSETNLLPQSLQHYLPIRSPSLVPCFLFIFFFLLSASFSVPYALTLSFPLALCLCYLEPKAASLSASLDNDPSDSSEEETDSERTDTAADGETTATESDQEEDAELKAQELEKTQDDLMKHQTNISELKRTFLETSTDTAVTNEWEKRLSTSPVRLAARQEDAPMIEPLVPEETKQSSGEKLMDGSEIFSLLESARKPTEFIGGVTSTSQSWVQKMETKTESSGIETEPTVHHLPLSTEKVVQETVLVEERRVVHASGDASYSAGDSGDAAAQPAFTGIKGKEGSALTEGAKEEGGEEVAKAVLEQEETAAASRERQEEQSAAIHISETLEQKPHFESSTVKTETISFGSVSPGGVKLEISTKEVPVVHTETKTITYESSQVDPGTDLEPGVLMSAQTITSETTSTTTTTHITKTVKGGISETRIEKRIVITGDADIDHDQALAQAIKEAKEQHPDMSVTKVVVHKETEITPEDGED
UniProt Q96L91, whole entry, looked up: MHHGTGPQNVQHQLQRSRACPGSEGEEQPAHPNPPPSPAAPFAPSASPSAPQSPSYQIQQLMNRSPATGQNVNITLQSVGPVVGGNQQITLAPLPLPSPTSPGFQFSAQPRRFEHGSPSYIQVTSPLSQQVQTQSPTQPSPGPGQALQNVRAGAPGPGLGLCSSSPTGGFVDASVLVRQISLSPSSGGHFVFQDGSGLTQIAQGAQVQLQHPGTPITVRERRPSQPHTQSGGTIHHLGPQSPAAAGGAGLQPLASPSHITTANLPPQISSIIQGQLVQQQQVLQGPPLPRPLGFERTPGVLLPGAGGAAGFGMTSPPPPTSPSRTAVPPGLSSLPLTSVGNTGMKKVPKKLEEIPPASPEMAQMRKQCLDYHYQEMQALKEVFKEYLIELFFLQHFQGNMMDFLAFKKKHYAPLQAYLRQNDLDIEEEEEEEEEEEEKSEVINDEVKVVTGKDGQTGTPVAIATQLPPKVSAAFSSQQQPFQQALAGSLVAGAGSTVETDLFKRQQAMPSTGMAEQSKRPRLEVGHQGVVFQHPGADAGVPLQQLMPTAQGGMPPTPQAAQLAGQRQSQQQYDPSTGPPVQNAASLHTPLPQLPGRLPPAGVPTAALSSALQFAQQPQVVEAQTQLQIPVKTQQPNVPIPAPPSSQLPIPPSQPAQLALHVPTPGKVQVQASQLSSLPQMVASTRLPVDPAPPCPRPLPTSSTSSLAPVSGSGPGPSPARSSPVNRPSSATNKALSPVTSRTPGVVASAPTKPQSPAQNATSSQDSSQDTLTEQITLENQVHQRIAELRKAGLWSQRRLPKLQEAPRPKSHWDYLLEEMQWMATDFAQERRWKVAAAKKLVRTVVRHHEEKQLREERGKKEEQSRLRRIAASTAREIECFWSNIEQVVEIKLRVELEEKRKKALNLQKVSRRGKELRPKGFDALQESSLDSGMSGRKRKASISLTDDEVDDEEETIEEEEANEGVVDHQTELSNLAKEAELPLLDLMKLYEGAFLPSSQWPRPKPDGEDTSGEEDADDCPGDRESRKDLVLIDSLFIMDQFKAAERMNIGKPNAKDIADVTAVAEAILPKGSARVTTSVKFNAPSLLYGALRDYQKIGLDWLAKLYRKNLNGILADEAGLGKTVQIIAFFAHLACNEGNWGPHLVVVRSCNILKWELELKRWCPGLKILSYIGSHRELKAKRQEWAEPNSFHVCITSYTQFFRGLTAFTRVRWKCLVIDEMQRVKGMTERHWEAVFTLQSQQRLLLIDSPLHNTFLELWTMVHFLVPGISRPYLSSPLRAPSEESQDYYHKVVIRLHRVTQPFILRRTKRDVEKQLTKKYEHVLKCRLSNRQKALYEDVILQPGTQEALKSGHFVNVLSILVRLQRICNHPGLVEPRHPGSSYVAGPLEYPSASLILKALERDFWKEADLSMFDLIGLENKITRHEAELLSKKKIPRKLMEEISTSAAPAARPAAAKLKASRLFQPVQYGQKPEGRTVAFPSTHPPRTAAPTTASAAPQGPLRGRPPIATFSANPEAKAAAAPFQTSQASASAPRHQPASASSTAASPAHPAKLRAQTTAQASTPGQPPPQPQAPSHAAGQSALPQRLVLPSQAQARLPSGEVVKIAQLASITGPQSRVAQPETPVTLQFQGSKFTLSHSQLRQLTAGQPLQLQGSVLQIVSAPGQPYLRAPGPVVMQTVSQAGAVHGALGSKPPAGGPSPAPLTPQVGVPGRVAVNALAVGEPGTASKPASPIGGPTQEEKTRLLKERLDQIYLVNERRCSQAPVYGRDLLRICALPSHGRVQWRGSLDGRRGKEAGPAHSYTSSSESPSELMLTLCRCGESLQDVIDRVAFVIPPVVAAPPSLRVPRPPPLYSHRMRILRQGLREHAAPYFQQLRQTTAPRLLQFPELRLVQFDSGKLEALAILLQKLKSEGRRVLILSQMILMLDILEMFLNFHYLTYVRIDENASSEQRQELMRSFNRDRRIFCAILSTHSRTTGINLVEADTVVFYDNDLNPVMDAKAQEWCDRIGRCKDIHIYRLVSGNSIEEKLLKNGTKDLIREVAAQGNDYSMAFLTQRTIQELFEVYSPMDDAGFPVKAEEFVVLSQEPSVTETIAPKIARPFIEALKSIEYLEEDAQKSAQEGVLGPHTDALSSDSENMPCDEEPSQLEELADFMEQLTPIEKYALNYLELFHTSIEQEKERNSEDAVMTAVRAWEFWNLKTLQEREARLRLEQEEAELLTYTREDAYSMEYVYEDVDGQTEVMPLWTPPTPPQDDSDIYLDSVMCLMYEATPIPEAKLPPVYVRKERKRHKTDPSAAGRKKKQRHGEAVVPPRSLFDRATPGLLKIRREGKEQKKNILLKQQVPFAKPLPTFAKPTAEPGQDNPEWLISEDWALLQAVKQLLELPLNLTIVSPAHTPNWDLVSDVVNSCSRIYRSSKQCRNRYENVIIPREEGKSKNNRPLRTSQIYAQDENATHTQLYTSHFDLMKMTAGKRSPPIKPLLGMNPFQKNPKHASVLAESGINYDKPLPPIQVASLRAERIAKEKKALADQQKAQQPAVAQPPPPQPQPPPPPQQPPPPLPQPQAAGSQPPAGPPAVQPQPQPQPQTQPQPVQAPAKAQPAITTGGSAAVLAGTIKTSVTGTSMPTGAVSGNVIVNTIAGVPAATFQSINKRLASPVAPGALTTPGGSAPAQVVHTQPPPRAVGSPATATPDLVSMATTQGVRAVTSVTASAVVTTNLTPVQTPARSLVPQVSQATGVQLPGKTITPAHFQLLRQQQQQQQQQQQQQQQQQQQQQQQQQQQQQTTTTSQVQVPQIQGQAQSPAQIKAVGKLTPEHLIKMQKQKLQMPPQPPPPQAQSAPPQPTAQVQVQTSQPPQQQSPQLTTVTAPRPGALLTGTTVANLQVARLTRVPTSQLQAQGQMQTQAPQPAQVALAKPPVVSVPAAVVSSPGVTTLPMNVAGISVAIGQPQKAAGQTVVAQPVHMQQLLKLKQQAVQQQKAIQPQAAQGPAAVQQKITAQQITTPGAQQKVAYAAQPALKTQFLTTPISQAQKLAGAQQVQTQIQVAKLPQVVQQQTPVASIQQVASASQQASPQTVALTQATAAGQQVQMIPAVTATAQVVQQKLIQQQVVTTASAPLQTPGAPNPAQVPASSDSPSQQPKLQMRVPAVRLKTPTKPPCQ
UniProt P06730, whole entry, looked up: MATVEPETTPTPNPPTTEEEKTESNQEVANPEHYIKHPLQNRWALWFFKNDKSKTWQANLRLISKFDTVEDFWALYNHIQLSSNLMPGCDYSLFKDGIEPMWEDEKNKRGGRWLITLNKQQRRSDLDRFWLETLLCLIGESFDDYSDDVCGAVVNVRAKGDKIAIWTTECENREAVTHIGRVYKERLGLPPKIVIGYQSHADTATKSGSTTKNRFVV
UniProt P42566: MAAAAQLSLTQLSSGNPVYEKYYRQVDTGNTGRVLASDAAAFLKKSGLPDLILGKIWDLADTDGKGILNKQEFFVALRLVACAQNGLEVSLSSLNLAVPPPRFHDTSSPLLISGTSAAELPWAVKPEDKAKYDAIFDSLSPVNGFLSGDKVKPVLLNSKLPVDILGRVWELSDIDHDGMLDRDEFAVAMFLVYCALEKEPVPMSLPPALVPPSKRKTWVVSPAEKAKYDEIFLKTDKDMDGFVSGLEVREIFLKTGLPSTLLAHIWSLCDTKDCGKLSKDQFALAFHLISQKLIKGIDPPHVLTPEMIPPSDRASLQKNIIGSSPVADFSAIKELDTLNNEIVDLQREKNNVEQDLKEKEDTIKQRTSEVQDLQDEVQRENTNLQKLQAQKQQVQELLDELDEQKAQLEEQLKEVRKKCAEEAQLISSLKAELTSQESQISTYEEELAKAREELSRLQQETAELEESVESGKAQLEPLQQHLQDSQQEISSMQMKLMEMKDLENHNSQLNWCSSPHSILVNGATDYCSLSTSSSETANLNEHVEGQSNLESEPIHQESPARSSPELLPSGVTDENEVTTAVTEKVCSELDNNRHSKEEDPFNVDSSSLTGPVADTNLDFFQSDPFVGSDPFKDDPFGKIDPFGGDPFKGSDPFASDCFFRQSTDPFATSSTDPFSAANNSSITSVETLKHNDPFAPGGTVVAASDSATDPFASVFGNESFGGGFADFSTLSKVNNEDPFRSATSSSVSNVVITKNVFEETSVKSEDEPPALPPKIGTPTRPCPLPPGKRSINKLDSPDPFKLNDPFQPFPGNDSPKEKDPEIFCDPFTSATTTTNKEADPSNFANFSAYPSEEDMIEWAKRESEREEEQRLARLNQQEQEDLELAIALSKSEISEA
UniProt Q9UBQ5, whole entry, looked up: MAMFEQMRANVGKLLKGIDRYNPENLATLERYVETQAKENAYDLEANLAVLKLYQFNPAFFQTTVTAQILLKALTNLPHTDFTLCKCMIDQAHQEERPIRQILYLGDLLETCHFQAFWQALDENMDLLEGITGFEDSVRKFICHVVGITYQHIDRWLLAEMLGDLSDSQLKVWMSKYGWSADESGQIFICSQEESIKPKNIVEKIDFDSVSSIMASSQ
UniProt O43491, whole entry, looked up: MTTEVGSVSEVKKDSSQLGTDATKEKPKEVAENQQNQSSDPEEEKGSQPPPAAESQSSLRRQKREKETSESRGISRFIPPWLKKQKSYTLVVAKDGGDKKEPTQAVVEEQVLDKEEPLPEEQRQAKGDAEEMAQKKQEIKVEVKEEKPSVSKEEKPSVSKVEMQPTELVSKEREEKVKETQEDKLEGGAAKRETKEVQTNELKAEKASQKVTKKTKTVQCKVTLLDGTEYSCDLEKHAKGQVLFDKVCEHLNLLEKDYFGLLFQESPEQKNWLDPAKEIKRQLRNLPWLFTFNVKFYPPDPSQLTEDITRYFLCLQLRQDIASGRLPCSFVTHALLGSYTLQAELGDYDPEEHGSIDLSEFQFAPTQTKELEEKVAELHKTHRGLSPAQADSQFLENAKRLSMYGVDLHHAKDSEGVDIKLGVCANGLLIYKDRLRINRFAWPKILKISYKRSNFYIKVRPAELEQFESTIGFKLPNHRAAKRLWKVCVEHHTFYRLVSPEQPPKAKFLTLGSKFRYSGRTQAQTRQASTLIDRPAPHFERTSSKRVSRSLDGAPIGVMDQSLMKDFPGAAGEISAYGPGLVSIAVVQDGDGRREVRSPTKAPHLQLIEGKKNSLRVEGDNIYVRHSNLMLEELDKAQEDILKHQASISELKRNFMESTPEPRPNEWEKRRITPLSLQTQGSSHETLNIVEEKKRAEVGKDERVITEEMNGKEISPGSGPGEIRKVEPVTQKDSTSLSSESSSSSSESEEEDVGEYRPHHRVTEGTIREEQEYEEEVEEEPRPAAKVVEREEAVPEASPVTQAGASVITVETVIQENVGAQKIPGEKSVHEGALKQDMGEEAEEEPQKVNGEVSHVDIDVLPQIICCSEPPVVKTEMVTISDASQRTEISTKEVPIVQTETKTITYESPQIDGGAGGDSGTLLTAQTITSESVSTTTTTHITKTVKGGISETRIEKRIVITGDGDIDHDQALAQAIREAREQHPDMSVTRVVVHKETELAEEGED

Compound in the first experiment: O=C1NC(=O)C(c2cnc3ccccn23)=C1c1cn2c3c(cc(F)cc13)CN(C(=O)N1CCCCC1)CC2
Nature of the experiment: log2 fold change, soluble protein after heating vs DMSO (PISA); higher = thermal stabilisation; K562 lysate, 10 uM; active = over 0.2 and 3.5 SD of the protein, either way, in both replicates (recomputed). Summed up: (§1)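 Log-two fold change in thermal stability relative to solvent controls is reported from duplicates. For each sample, crude K562 extract from dounce-homogenised pellets in PBS pH 7.4 with 1 mM MgCl2, at 1 mg/mL protein, was treated with 10 μM compound for 30 min. Aliquots heated for 3 min across 48°C-58°C were pooled, brought to 0.5% NP-40 at 4°C and cleared at 21,000xg for 90 min. The supernatant was quantified by TMTpro 16plex LC-MS/MS with channel sums equalised.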
With EIF5B (UniProt O60841), the log2 fold change was inactive: 0.013.

Consider ELAVL4 (UniProt P26378), for which the log2 fold change was inactive: 0.004.

On to EIF4H (UniProt Q15056), for which the log2 fold change was inactive: -0.006. With EIF2B3 (UniProt Q9NR50), the log2 fold change was inactive: 0.009. With EPS15L1 isoform 2 (UniProt Q9UBC2), the log2 fold change was inactive: -0.007. With EIF5A isoform 2 (UniProt P63241), the log2 fold change is inactive: 0.025. In the case of EPB41L3 (UniProt Q9Y2J2), the log2 fold change was inactive: -0.007. As for ERH (UniProt P84090), the log2 fold change is inactive: 0.021. On to EIF3M (UniProt Q7L2H7), for which the log2 fold change was inactive: 0.027. As for EIF2D (UniProt P41214), the log2 fold change is inactive: 0.04.

Compound in another experiment: c1cn2cc(-c3ccc4cn[nH]c4c3)nc(Nc3ccc(N4CCOCC4)cc3)c2n1 [entospletinib]
The experiment is described as above. Summed up:
as §1
Regarding EP400 isoform 5 (UniProt Q96L91), the log2 fold change was inactive: -0.021.

On to EMC10 (UniProt Q5UCC4), for which the log2 fold change is inactive: -0.021. Turning to EIF4G3, A0A0U1RQK7, the log2 fold change was inactive: -0.031. Regarding EMC6 (UniProt Q9BV81), the log2 fold change is inactive: -0.073. On to ERAL1 (UniProt O75616), for which the log2 fold change is inactive: -0.083. As for ENDOG (UniProt Q14249), the log2 fold change was inactive: 0.012. Take EIF4E isoform 2 (UniProt P06730): the log2 fold change was inactive: 0.008. As for EIF4EBP1 (UniProt Q13541), the log2 fold change was inactive: -0.107. With ELP4 (UniProt Q96EB1), the log2 fold change is inactive: 0.012.

Turning to EIF4E2 (UniProt O60573), the log2 fold change was inactive: -0.013. On the same count and under the same terms, to ELMO1 (UniProt Q92556) belongs inactive: 0.004.

Take EPS15 (UniProt P42566): the log2 fold change was inactive: -0.012. For ERCC4 (UniProt Q92889), the log2 fold change is inactive: 0.021. As to EMC1 (UniProt Q8N766), the log2 fold change is inactive: -0.001. Take ELOB (UniProt Q15370): the log2 fold change is inactive: 0.008. Still for that read-out and setting: as for EIF3K (UniProt Q9UBQ5), the figure is inactive: 0.008; as for EPB41L2 (UniProt O43491), inactive: 0.003; as for ELF2 (UniProt Q15723), inactive: -0.03.

Take EMP3 (UniProt P54852): the log2 fold change was inactive: 0.144. For the target EIF2B5 (UniProt Q13144), the log2 fold change is inactive: 0.013. As to EIF5B (UniProt O60841), the log2 fold change was inactive: -0.003. Turning to ELAVL4 (UniProt P26378), the log2 fold change is inactive: -0.067. As to EIF4H (UniProt Q15056), the log2 fold change was inactive: -0.013. On the same count and under the same terms, as for EIF2B3 (UniProt Q9NR50), the figure is inactive: -0.004; as for EPS15L1 isoform 2 (UniProt Q9UBC2), inactive: -0.011. As for EIF5A isoform 2 (UniProt P63241), the log2 fold change is inactive: 0.003. As for EPB41L3 (UniProt Q9Y2J2), the log2 fold change was inactive: 0.017. Take ERH (UniProt P84090): the log2 fold change is inactive: -0.024.

Regarding EIF3M (UniProt Q7L2H7), the log2 fold change was inactive: 0.008. Consider EIF2D (UniProt P41214), for which the log2 fold change is inactive: 0.02.

The record behind these values is the supplement of paper PMC10849652.
